Results reported in PMC11668853.
Results are given in words; binding and its absence hold for the method and conditions named. Binding seen in cells or lysates may run through a third protein. Some binding calls cover weakened binding; strength is not graded here.

Sequences of proteins named here, by UniProt entry; tags and fusion partners are left off.
UniProt P28033: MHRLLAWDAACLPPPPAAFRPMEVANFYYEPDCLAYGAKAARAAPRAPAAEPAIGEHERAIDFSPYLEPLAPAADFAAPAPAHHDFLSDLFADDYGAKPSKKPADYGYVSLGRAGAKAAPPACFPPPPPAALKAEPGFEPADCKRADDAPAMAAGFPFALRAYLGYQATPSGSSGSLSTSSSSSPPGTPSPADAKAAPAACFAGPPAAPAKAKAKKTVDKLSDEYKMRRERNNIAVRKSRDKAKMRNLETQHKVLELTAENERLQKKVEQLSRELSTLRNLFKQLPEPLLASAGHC

Target: T1, Tribbles homolog 3 (TRIB3) (mouse (endogenous in CAAs derived from 3T3-L1 adipocytes)) (UniProt Q8K4K2)
T1 sequence: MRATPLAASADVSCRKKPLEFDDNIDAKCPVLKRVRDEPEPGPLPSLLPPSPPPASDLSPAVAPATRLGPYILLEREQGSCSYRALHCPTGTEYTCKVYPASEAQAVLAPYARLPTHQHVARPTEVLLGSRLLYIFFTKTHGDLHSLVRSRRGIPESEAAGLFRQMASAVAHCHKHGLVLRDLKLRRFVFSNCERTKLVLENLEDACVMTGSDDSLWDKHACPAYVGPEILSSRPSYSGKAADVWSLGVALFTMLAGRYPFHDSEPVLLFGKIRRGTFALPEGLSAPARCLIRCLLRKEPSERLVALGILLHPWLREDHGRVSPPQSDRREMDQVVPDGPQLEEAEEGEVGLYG
Test: co-IP; anti-TRIB3 or anti-CEBPβ antibodies on extracts prepared from CAAs; TRIB3 or CEBPβ in the IPs detected by immunoblotting

Substance: CEBPβ (from UniProt P28033 1-296)
- binding: binds
